Hit rate of the full screen: of about 340,000 compounds, about 2,300 (0.68%) were called active. This list was built around the results that the source calls inconclusive (neither active nor inactive); the mix of calls is not that of the screen. No stated cut-off is given here; in the data, active means growth rescue above about 28% (passing the limit was not always enough); inconclusive means no clear call, values can overlap the other calls.
Test: rescue of yeast from PfHsp40 toxicity, primary screen, S. cerevisiae, ATP luminescence (AID 504582);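 further: yeast W303a lacking pdr1 and pdr3 grown in galactose medium; growth measured after three days at 30 °C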
Conditions: S. cerevisiae expressing PfHsp40, growth rescue, at 12.5 µM, hits give high values

| Structure (SMILES) | growth rescue |
| --- | --- |
| O=C(Oc1cccc(C(=S)N2CCOCC2)c1)c1ccc([N+](=O)[O-])cc1[N+](=O)[O-] | active: 44% |
| Cc1ccc(NC(=O)NC(=O)CSc2nnc(-c3ccc(Cl)cc3Cl)n2N)c(C)c1 | inconclusive: 73.8% |
| COC(=O)c1ccc(C2NC(=O)NC(C)=C2C(=O)N(C)C)cc1 (stereo unspecified) | inconclusive: 26.4% |
| Oc1c(Br)cc(-c2ccccc2)cc1Br | active: 580% |
| CC(C)c1ccc(Nc2nnc(SCC(=O)c3nnc(-c4ccccc4)o3)s2)cc1 | active: 200% |
| CC(C)c1ccc(S(=O)(=O)Nc2ccc(SC(F)F)cc2)cc1 | inconclusive: 34.3% |
| CC(C)(C)NC(=O)c1ccc2nsnc2c1 | inconclusive: 28.1% |
| COc1cc(NC(=O)COc2ccccc2Cl)ccc1NC(=O)c1cccs1 | inconclusive: 25.9% |
| CC(=NNC(=S)N1CCN(c2ccccn2)CC1)c1nccs1 | active: 108% |
| O=C(CSc1ncn[nH]1)CSc1ncn[nH]1 | inconclusive: 44.7% |
| CN(C)c1ccc(/C=C/c2cc[n+](C)c3ccccc23)cc1 | inconclusive: 81% |
| C[C@H](C[C@H](O)[C@H]1OC1(C)C)C1=C2C[C@H](O)C3[C@@]4(C)CCC(=O)C(C)(C)C4CC[C@]3(C)[C@@]2(C)CC1 (stereo partly specified) | active: 40.2% |
| Cn1cccc1C(=O)Nc1nc(-c2ccccn2)cs1 | inconclusive: 71.9% |
| COc1ccc(/C=N/NC(=O)c2nc(-c3ccccc3)n(-c3ccccc3)n2)c(O)c1 | active: 71.5% |
| COc1ccc(C(=O)Nc2ccc(-c3n[nH]c(=S)o3)cc2)cc1OC | inactive: 3.04% |
| CCNc1nc(N)nc(-c2cc(Cl)ccc2O)n1 | inconclusive: 26.1% |
| CCOC(=O)c1c(NC(=O)c2cc3n(n2)C(C(F)(F)F)CC(c2ccccc2)N3)sc(C)c1C (stereo unspecified) | inconclusive: 39.5% |
| O=C1CCCC2=C1C(c1cccc(O)c1)c1c(ccc3ncccc13)N2 (stereo unspecified) | inconclusive: 30.1% |
| O=C(c1cc2ccccc2oc1=O)N1CCOCC1 | inactive: 0.0175% |
| CCCCCCCCCCCCCCCC[n+]1cccc(C(=O)N(CC)CC)c1 | inconclusive: 27.7% |
| CCc1ccc2[nH]c(C(=O)Nc3ccc(F)cc3Br)cc2c1 | inconclusive: 44.5% |
| Cc1ccc(NC(=O)C(C)N=C2NS(=O)(=O)c3ccccc32)cc1 (stereo unspecified) | inactive: -0.947% |
| COc1cccc(CC(NC(C)=O)C(=O)NC2CCN(c3nnnn3-c3ccccc3)CC2)c1OC (stereo unspecified) | inconclusive: 30.1% |

| Structure (SMILES) | growth rescue |
| --- | --- |
| Cc1ccc(NC(=S)Nc2ccc(OC(F)F)c(Cl)c2)cc1F | inconclusive: 59.9% |
| COc1ccc(S(=O)(=O)N(C(=O)c2ccncc2)c2ccc(OC(=O)c3ccncc3)cc2)cc1 | active: 515% |
| COc1cc(C(=O)NC(=S)NNC(=O)c2ccc3c(c2)OCO3)cc(OC)c1OC | inconclusive: 26.8% |
| O=C1C=C(c2cccc(Cl)c2O)C[C@@H](c2ccc(Cl)cc2)C1 | inconclusive: 202% |
| Cc1ccc(S(=O)(=O)N2[C@@H](c3cccc(Cl)c3)C(C(=O)O)=CC[C@H]2c2ccc(C(C)C)cc2)cc1 | inconclusive: 104% |
| Cc1nc(N2CCN(C(=O)c3ccco3)CC2)c2c3c(sc2n1)CCCC3 | inconclusive: 40.7% |
| Cc1ccc2[nH]c3c(c2c1)CCc1cn[nH]c1-3 | inconclusive: 25.3% |
| COc1cccc(-c2nnc(SCc3cccnc3)o2)c1 | inconclusive: 58.4% |
| O=C1c2ccccc2CCc2ccccc21 | inactive: -0.148% |
| C=CCN(c1ccccc1)S(=O)(=O)c1cccc(C(=O)Nc2ccc(N3CCOCC3)cc2)c1 | inconclusive: 57.6% |
| COc1ccc2c(C=O)cn(C)c2c1 | inconclusive: 36% |
| O=[N+]([O-])c1cc(Cl)cc(/C=N/n2cnnc2)c1O | inactive: -0.747% |
| CCc1ccc(Nc2c([N+](=O)[O-])c(=O)oc3ccccc23)cc1 | active: 116% |
| CC1CCCCC12NC(=O)N(CC(=O)Nc1ccc(N3CCOCC3)cc1)C2=O (stereo unspecified) | inconclusive: 55.6% |
| O=C(Cn1c(=O)oc2ccccc21)Nc1n[nH]c(=S)s1 | inconclusive: 43% |
| O=C(O)c1ccc(/C=C/c2nc3ccccc3c(=O)n2-c2ccc(Br)cc2)cc1 | inconclusive: 77.2% |
| Cc1ccc(/C=C/C(=O)c2ccccc(=O)c2O)cc1C | inconclusive: 47.6% |
| O=C(NNc1ccc([N+](=O)[O-])cc1)c1ccccc1F | active: 32% |
| CCCc1cc(-c2n[nH]c(=S)n2-c2cccc(C)c2)cs1 | active: 67.7% |
| CC1CN(C(=O)CCc2ccccc2)C(C)CN1C(=O)CCc1ccccc1 (stereo unspecified) | active: 44.6% |
| COc1ccc(-c2csc(Nc3ccc(C)cn3)n2)cc1 | inconclusive: 30.6% |
| CC(C)COc1ccc(CNC(=S)NCc2ccccc2)cc1 | active: 51.4% |
| Cc1cc2cc(CNC(=O)c3cccs3)ccc2n1C | inactive: -0.496% |

| Structure (SMILES) | growth rescue |
| --- | --- |
| COc1ccc2c(c1)C=C(C(=O)NCc1ccc(Cl)cc1)CO2 | inconclusive: 115% |
| CC(/C=N/NC(=O)c1n[nH]c2c1CCC2)=C\c1ccccc1 | inactive: 0.385% |
| Cc1cc(=O)oc2ccc(OCC(=O)NCc3ccco3)cc12 | inconclusive: 44.6% |
| OCCCNC(=S)Nc1ccc2nc(-c3ccccn3)c(-c3ccccn3)nc2c1 | inactive: -0.557% |
| O=C(Nc1nc2ccccc2n1CCN1CCOCC1)c1cn(-c2ccccc2)nc1-c1ccccc1 | inconclusive: 37.3% |
| CCN(CC)S(=O)(=O)c1ccc(/C(O)=C2/C(=O)C(=O)N(CCOC)C2c2ccccc2)cc1 (stereo unspecified) | active: 96.8% |
| COc1ccc(-c2nnc(-c3ccc(OCC(C)C)cc3)o2)cc1 | inconclusive: 57.5% |
| O=c1oc(CCO)cc2ccc(C#Cc3ccsc3)cc12 | inconclusive: 25.2% |
| C=CCn1c(SCC(=O)c2ccc(O)c(O)c2)nnc1-c1cccnc1 | inconclusive: 40.4% |
| CC1=NN(C(N)=S)C(=O)C1N=Nc1cccc(Cl)c1C (stereo unspecified) | active: 104% |
| O=C(CCc1ccccc1)NNC(=O)Cc1ccccc1 | inconclusive: 44.2% |
| Cc1cc2n(n1)SC(Nc1ccccc1)N2 (stereo unspecified) | inconclusive: 29.1% |
| CC(C)NC[C@@H](O)COc1ccc(CC(N)=O)cc1 | inconclusive: 25.1% |
| Cc1ccnc2nc(C(=O)Nc3nc4ccccc4s3)nn12 | inactive: 0.029% |
| COc1ccc(-c2cc(-c3cc(C)ccc3O)[nH]n2)cc1 | inconclusive: 401% |
| C/C(=N\Nc1ccc(C(=O)O)cc1)c1ccc2c(c1)Nc1ccccc1S2 | active: 207% |
| CCOc1cc(/C=C\[N+](=O)[O-])ccc1OCC(=O)N1CCOCC1 | active: 34.9% |
| COC(=O)C1=C(C)NC(=S)NC1c1ccc(-c2cccc(Cl)c2)o1 (stereo unspecified) | inactive: 0.0625% |
| Cc1ccc(C(=O)N2c3ccccc3OCC2C)cc1 (stereo unspecified) | inactive: 7.39% |
| Cc1nc(N2CCN(Cc3ccccc3)CC2)nc2c1C(=O)CC(c1ccco1)C2 (stereo unspecified) | inactive: -0.81% |
| CCCNC(=O)CN(c1ccc(F)cc1)S(=O)(=O)c1ccc2c(c1)OCCO2 | inconclusive: 50.7% |
| N#Cc1ccc(S(=O)(=O)NC[C@H]2O[C@@H](n3cnc4c(N)ncnc43)[C@H](O)[C@@H]2O)cc1 | inconclusive: 28% |
| CCOc1ccc2oc(C(=O)N3CC(C)OC(C)C3)c(C)c2c1 (stereo unspecified) | inactive: 0.632% |

| Structure (SMILES) | growth rescue |
| --- | --- |
| CNC(=O)c1cc(Oc2ccc(NC(=O)Nc3ccc(Cl)c(C(F)(F)F)c3)cc2)ccn1 | inconclusive: 106% |
| O=C(O)CCN1C(=O)c2ccc(NC(=O)COc3ccccc3)cc2C1=O | inconclusive: 27.7% |
| COc1cccc2c1C(=O)c1c(O)c3c(c(O)c1C2=O)C[C@@](O)(C(C)=O)C[C@@H]3O[C@H]1C[C@H](N)[C@H](O)[C@H](C)O1 | active: 50.6% |
| Cc1cccc(Nc2ncnc3ccc(Br)cc23)c1 | inactive: 0.061% |
| CC(Oc1ccccc1[N+](=O)[O-])C(=O)N/N=C/c1ccoc1 (stereo unspecified) | inconclusive: 58.4% |
| Clc1ccccc1/C=C/c1ccnc2ccccc12 | inconclusive: 28.6% |
| O=C(NC(=S)NCc1ccccc1)c1cccc(Cl)c1 | active: 28.9% |
| COc1ccc(S(=O)(=O)N2CC(C)OC(C)C2)cc1C(=O)N1CCCCC1 (stereo unspecified) | inactive: 0.556% |
| Fc1ccc(Nc2nnc(C(F)(F)F)s2)cc1Cl | active: 149% |
| CC12CCC(C(=O)N(CSC(=S)N/N=C\c3ccccc3O)C1=O)C2(C)C (stereo unspecified) | inconclusive: 219% |
| Cc1cccc(Nc2nc(N)c([N+](=O)[O-])c(N3CC(C)CC(C)C3)n2)c1 (stereo unspecified) | active: 64.2% |
| CCC(NC(=S)NC1CCCCC1)c1ccc(C(C)C)cc1 (stereo unspecified) | inconclusive: 91.4% |
| CCNC(=S)NNC(=O)c1csc2c1CCCC2 | inactive: -0.927% |
| COc1ccccc1-c1sc2cc3c(cc2c1-c1ccc(O)cc1)OCO3 | inconclusive: 101% |
| CN(C)S(=O)(=O)c1cccc(-c2cn3cccnc3n2)c1 | inconclusive: 82.4% |
| COC(OC)c1ccnc(-c2ccc(OC(C)=O)cc2)n1 | active: 51.7% |
| CC(C)C1Nc2c(O)cc(Cl)c([N+](=O)[O-])c2C2C=CCC21 (stereo unspecified) | inactive: -0.858% |
| COc1cc(/C=N/N(C)c2ccccc2)cc(Cl)c1O | inconclusive: 30.8% |
| CC1=CC2=NC(=O)/C(=C/c3coc4ccc(Cl)cc4c3=O)C(=N)N2O1 | inconclusive: 32.3% |
| CC1CN(C(=O)CCC(=O)NCCCN2C(C)CCCC2C)c2ccccc2O1 (stereo unspecified) | inactive: -2.45% |
| O=C(OC(C(=O)NCC1CCCO1)c1ccc(F)cc1)c1ccco1 (stereo unspecified) | inconclusive: 25.3% |
| O=C(NCCCSc1ccccc1)c1cc(Cl)ccc1O | inconclusive: 43.3% |

Reprinted at random: six compounds from above, in no set order.

| Structure (SMILES) | growth rescue |
| --- | --- |
| Cc1cccc(Nc2nc(N)c([N+](=O)[O-])c(N3CC(C)CC(C)C3)n2)c1 (stereo unspecified) | active: 64.2% |
| Fc1ccc(Nc2nnc(C(F)(F)F)s2)cc1Cl | active: 149% |
| O=C(Nc1nc2ccccc2n1CCN1CCOCC1)c1cn(-c2ccccc2)nc1-c1ccccc1 | inconclusive: 37.3% |
| COc1cccc2c1C(=O)c1c(O)c3c(c(O)c1C2=O)C[C@@](O)(C(C)=O)C[C@@H]3O[C@H]1C[C@H](N)[C@H](O)[C@H](C)O1 | active: 50.6% |
| O=C1CCCC2=C1C(c1cccc(O)c1)c1c(ccc3ncccc13)N2 (stereo unspecified) | inconclusive: 30.1% |
| COc1cc(NC(=O)COc2ccccc2Cl)ccc1NC(=O)c1cccs1 | inconclusive: 25.9% |
